Reference: article PMC5024519
These are yes or no findings as the source states them, for the method shown. Binding seen in cells or lysates may run through a third protein. Some results given as binding are weak or reduced against the parent protein; the word gives no strength. Sequences can lack the tags named with a protein.

Protein sequences, listed by entry. Tags and fused reporters are not part of them.
UniProt Q22516: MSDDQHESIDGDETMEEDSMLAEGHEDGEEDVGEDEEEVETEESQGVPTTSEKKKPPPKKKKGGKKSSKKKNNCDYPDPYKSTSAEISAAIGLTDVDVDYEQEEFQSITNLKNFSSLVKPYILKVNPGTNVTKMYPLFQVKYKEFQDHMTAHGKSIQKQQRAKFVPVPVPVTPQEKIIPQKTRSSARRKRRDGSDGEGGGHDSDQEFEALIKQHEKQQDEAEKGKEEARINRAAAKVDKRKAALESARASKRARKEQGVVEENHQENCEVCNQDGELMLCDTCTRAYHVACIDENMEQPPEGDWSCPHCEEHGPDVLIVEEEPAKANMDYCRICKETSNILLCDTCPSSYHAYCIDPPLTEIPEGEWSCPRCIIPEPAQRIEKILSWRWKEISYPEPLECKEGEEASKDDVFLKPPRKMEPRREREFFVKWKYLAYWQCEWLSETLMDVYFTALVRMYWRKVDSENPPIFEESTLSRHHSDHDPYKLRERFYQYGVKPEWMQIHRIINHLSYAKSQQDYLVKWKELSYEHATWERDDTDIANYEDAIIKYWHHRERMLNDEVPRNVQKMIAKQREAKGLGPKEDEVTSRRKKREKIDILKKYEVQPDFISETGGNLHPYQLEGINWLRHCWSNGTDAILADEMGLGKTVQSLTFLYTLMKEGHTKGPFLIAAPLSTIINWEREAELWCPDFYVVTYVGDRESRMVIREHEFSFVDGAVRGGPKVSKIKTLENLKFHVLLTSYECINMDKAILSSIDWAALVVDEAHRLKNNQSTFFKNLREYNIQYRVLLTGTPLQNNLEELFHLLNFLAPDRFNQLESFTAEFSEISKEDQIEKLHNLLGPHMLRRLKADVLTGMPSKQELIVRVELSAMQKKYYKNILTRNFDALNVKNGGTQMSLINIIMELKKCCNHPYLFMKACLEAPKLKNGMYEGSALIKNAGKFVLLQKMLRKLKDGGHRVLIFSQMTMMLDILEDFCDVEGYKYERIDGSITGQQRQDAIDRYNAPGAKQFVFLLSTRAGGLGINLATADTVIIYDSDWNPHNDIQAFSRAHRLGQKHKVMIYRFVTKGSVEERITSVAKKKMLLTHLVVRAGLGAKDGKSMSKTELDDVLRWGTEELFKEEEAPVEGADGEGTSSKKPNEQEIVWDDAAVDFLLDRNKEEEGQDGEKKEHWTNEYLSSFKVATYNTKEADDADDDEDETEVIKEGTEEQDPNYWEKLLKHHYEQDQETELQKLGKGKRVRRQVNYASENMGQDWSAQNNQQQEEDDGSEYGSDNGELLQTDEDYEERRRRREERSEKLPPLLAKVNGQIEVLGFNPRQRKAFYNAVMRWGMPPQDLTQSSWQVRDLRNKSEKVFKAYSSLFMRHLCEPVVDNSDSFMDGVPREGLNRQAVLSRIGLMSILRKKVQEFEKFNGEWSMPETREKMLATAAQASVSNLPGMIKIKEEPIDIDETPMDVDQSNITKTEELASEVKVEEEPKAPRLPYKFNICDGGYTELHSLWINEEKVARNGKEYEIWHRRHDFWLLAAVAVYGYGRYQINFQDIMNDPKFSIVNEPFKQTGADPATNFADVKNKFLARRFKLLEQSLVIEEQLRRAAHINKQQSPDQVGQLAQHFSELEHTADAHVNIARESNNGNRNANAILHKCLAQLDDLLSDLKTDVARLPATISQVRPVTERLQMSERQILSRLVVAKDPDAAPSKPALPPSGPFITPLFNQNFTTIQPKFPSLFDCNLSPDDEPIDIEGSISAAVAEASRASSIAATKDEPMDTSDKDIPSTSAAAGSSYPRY
UniProt G5EBZ4: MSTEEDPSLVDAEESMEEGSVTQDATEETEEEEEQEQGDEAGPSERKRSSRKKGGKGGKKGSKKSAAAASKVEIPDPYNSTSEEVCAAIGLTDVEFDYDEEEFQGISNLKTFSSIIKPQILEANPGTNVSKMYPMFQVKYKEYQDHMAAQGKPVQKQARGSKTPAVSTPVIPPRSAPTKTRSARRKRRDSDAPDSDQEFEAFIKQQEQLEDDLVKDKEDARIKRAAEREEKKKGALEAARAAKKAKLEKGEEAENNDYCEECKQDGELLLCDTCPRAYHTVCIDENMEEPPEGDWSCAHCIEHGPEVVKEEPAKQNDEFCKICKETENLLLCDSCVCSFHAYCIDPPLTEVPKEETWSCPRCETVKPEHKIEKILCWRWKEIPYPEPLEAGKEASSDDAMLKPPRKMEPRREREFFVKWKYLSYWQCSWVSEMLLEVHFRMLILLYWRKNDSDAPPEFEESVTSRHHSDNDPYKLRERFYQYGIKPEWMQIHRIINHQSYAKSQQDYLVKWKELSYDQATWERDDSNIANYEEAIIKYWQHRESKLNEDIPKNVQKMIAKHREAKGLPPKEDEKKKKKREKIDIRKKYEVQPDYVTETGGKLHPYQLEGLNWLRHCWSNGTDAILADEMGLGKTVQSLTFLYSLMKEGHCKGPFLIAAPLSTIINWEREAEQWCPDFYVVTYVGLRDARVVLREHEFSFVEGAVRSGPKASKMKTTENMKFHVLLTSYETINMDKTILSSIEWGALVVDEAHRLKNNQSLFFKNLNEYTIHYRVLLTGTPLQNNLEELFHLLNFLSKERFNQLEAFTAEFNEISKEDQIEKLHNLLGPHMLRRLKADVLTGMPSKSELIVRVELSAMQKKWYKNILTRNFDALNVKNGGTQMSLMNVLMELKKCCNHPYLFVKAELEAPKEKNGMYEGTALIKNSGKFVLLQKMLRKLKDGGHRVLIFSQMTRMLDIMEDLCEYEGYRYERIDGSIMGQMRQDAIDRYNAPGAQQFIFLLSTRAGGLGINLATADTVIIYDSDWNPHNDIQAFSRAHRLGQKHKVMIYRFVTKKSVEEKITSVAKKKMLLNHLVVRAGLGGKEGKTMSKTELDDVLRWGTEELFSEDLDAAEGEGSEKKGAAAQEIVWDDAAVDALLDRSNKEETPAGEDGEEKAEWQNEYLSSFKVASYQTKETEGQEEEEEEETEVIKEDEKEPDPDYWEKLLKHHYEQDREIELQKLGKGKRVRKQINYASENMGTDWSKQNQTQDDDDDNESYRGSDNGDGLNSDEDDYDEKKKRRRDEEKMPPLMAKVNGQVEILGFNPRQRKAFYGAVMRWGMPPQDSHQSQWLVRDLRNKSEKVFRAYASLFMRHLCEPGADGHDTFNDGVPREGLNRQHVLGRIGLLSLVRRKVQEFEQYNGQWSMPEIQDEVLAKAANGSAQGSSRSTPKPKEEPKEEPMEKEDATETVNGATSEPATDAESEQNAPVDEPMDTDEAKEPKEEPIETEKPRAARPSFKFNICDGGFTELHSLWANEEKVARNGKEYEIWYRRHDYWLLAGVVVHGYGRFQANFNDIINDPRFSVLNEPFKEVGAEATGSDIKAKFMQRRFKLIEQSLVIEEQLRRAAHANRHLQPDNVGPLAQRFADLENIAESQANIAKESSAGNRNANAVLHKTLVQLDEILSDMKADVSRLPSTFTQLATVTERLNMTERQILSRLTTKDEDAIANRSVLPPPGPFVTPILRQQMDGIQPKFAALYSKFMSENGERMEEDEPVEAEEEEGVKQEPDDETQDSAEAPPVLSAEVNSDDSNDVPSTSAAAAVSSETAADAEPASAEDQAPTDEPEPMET

Experiments:
[1] = target: CHD-3::StrepIII::HA (C. elegans) (UniProt Q22516); experiment: pull-down; Strep-tactin pull-down of CHD-3::StrepIII::HA from C. elegans embryonic extracts, western blot for both tagged proteins; embryos with or without the CHD-3 construct; mock: agarose resin only
LET-418 (C. elegans) = LET-418 (C. elegans) (UniProt G5EBZ4); experiment: co-IP; anti-LET-418 immunoprecipitation from C. elegans embryonic extracts, western blot for MES-2::EGFP::3xFLAG; mock: no antibody; done in wild-type and in chd-3(eh4) embryos (chd-3 depletion does not disrupt the interaction)

binding [1]: binds
binding (LET-418 (C. elegans)): binds
B1: MES-2::EGFP::3xFLAG (protein, UniProt O17514 1-773)
chain: MSNSEPSTSTPSGKTKKRGKKCETSMGKSKKSKNLPRFVKIQPIFSSEKIKETVCEQGIEECKRMLKGHFNAIKDDYDIRVKDELDTDIKDWLKDASSSVNEYRRRLQENLGEGRTIAKFSFKNCEKYEENDYKVSDSTVTWIKPDRTEEGDLMKKFRAPCSRIEVGDISPPMIYWVPIEQSVATPDQLRLTHMPYFGDGIDDGNIYEHLIDMFPDGIHGFSDNWSYVNDWILYKLCRAALKDYQGSPDVFYYTLYRLWPNKSSQREFSSAFPVLCENFAEKGFDPSSLEPWKKTKIAEGAQNLRNPTCYACLAYTCAIHGFKAEIPIEFPNGEFYNAMLPLPNNPENDGKMCSGNCWKSVTMKEVSEVLVPDSEEILQKEVKIYFMKSRIAKMPIEDGALIVNIYVFNTYIPFCEFVKKYVDEDDEESKIRSCRDAYHLMMSMAENVSARRLKMGQPSNRLSIKDRVNNFRRNQLSQEKAKRKLRHDSLRIQALRDGLDAEKLIREDDMRDSQRNSEKVRMTAVTPITACRHAGPCNATAENCACRENGVCSYMCKCDINCSQRFPGCNCAAGQCYTKACQCYRANWECNPMTCNMCKCDAIDSNIIKCRNFGMTRMIQKRTYCGPSKIAGNGLFLLEPAEKDEFITEYTGERISDDEAERRGAIYDRYQCSYIFNIETGGAIDSYKIGNLARFANHDSKNPTCYARTMVVAGEHRIGFYAKRRLEISEELTFDYSYSGEHQIAFRMVQTKERSEKPSRPKSQKLSKPMTSE
